Reference: PubChem BioAssay AID1671195 (Yale University, 2021)
The deposit covers about 22,000 reagents; below is a random part of them. Of all reagents, about 1,510 (6.9%) are marked active. 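Active includes knockdowns raising or lowering LDL uptake; positive z-scores mean more uptake, negative mean less.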 Unmarked entries are inactive. The numbers tell different reagents against one gene apart. No sequences are given here.

Screen: 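Genes whose knockdown alters LDL uptake in liver cancer cells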 (primary screen)
Cell system: human Huh7 hepatoma cells
Reagents: siRNA pool against human genes, 18 nM
Timing: about 2 to 2.5 days of knockdown, then 8 h LDL uptake
Treatment: DiI-labelled LDL at 30 µg/ml for 8 h, in lipoprotein-deficient serum medium
Measurement: 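Per-cell DiI-LDL intensity by automated imaging; well means scaled to the plate median and given as a robust z-score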
Direction: robust z-score: higher = more LDL uptake after knockdown
Hit rule: 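a gene counts as active if at least two replicate z-scores exceed ±2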

For HGSNAT (GeneID 138050), the entry reads robust z-score, replicate 1 = -0.00757; robust z-score, replicate 2 = -0.783; robust z-score, replicate 3 = 0.274.
Silencing of DHH (GeneID 50846) came out at: robust z-score, replicate 1 = 0.693; robust z-score, replicate 2 = 1.29; robust z-score, replicate 3 = -0.323.
After knock-down of SAR1AP3 (GeneID 344988), the record shows robust z-score, replicate 1 = -1.29; robust z-score, replicate 2 = -1.32; robust z-score, replicate 3 = -1.17.
STAG3L4 (GeneID 64940) gave robust z-score, replicate 1 = -0.655; robust z-score, replicate 2 = -1.03; robust z-score, replicate 3 = -0.812.
CASZ1 (GeneID 54897) #1 gave robust z-score, replicate 1 = 2.22 (active); robust z-score, replicate 2 = 2.2; robust z-score, replicate 3 = 1.89.
With knock-down of CASZ1 (GeneID 54897) #2, the record shows robust z-score, replicate 1 = 0.782; robust z-score, replicate 2 = -0.0418; robust z-score, replicate 3 = 0.276.
Against XIRP1 (GeneID 165904), the values are robust z-score, replicate 1 = -0.808; robust z-score, replicate 2 = -0.379; robust z-score, replicate 3 = -0.607.
With knock-down of SKIC8 (GeneID 80349), the record shows robust z-score, replicate 1 = -0.591; robust z-score, replicate 2 = -1.14; robust z-score, replicate 3 = -0.872.
Depletion of LOC392226 (GeneID 392226) gave: robust z-score, replicate 1 = 2.53 (active); robust z-score, replicate 2 = 2.79; robust z-score, replicate 3 = 2.42.
LINC01102 (GeneID 150568) scored robust z-score, replicate 1 = -0.0961; robust z-score, replicate 2 = -0.913; robust z-score, replicate 3 = 0.133.
CASC15 (GeneID 401237) showed robust z-score, replicate 1 = 0.484; robust z-score, replicate 2 = 0.908; robust z-score, replicate 3 = 0.913.
After knock-down of OTOA (GeneID 146183) the results were robust z-score, replicate 1 = 1.28; robust z-score, replicate 2 = 0.714; robust z-score, replicate 3 = 0.97.
OR4X2 (GeneID 119764) scored robust z-score, replicate 1 = -0.187; robust z-score, replicate 2 = 0.124; robust z-score, replicate 3 = 0.877.
After knock-down of RNPS1 (GeneID 10921), the record shows robust z-score, replicate 1 = -0.773; robust z-score, replicate 2 = 0.00245; robust z-score, replicate 3 = -0.437.
Against FOXJ3 (GeneID 22887) the deposit lists robust z-score, replicate 1 = -0.635; robust z-score, replicate 2 = -0.753; robust z-score, replicate 3 = -0.509.
LOC440782 (retired record) (GeneID 440782) showed robust z-score, replicate 1 = 0.0401; robust z-score, replicate 2 = -0.337; robust z-score, replicate 3 = 0.064.
For LOC387886 (retired record) (GeneID 387886) the deposit lists robust z-score, replicate 1 = 0.171; robust z-score, replicate 2 = 0.0498; robust z-score, replicate 3 = 0.209.

Single entries from the entries so far:
Entry of OTOA (GeneID 146183) in “robust z-score, replicate 1”: 1.28
FOXJ3 (GeneID 22887), robust z-score, replicate 3 → -0.509

Next reagents:
After knock-down of CHURC1 (GeneID 91612), the record shows robust z-score, replicate 1 = -1.12; robust z-score, replicate 2 = -1.5; robust z-score, replicate 3 = -1.77.
With knock-down of ERICH6B (GeneID 220081), the screen gave robust z-score, replicate 1 = 0.285; robust z-score, replicate 2 = 0.343; robust z-score, replicate 3 = 0.243.
MPHOSPH9 (GeneID 10198) gave robust z-score, replicate 1 = 1.63; robust z-score, replicate 2 = -0.0583; robust z-score, replicate 3 = -0.199.
OR6S1 (GeneID 341799) scored robust z-score, replicate 1 = -0.478; robust z-score, replicate 2 = -0.531; robust z-score, replicate 3 = -0.504.
LOC440559 (retired record) (GeneID 440559) gave robust z-score, replicate 1 = -0.305; robust z-score, replicate 2 = -1.14; robust z-score, replicate 3 = -1.18.
For ANKRD24 (GeneID 170961), the values are robust z-score, replicate 1 = -1.04; robust z-score, replicate 2 = -0.919; robust z-score, replicate 3 = -1.08.
AP3S2 (GeneID 10239) scored robust z-score, replicate 1 = -0.413; robust z-score, replicate 2 = -0.994; robust z-score, replicate 3 = 1.69.
Knock-down of FER1L6-AS1 (GeneID 439941) gave: robust z-score, replicate 1 = -0.518; robust z-score, replicate 2 = -0.162; robust z-score, replicate 3 = -0.513.
Against SMIM7 (GeneID 79086), the values are robust z-score, replicate 1 = 0.528; robust z-score, replicate 2 = -0.659; robust z-score, replicate 3 = 0.0663.
Silencing of STAMBPL1 (GeneID 57559) resulted in: robust z-score, replicate 1 = 0.999; robust z-score, replicate 2 = 0.679; robust z-score, replicate 3 = 1.32.
After knock-down of POT1-AS1 (GeneID 401398), the screen gave robust z-score, replicate 1 = 0.992; robust z-score, replicate 2 = 0.214; robust z-score, replicate 3 = 0.703.
After knock-down of LOC441498 (retired record) (GeneID 441498), the record shows robust z-score, replicate 1 = 0.0689; robust z-score, replicate 2 = 0.022; robust z-score, replicate 3 = 0.563.
Depletion of KCNJ2-AS1 (GeneID 400617) came out at: robust z-score, replicate 1 = 0.712; robust z-score, replicate 2 = 0.87; robust z-score, replicate 3 = 1.44.
